This data set concerns the target T1, 6xHis-MBP-NHR-25 DBD (unmodified) (Caenorhabditis elegans) (UniProt Q19345).
T1 sequence (looked up): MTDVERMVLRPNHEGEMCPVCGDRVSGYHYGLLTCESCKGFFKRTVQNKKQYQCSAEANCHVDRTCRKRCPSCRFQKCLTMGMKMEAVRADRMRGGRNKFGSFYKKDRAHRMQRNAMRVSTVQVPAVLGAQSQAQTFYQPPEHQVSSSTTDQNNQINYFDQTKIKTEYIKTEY
Put plainly: EMSA. The note with it: 1 uM DNA, 50 mM Tris pH 8.0, 150 mM NaCl, 10 mM MgCl2, 10 mM DTT, 10 mM ATP, 400 ug/ml BSA, 1 uM dsDNA, 500 nM protein (200-700 nM titration), room temperature 30 min, recombinant protein, residues 1-173, protein details: N-terminal 6xHis-MBP. On the technique in general: In EMSA bound probe runs differently from free probe, usually more slowly.

The comparison behind a weaker result is the experiment's own reference, which may not be listed here. Protein sequences can lack the tags named with them.

With “GATCCGCCAGGCACTGTCCCCCAATTTCACCTTTGGTGTTGATAAGATCCC / TCGAGGGATCTTATCAACACCAAAGGTGAAATTGGGGGACAGTGCCTGGCG [MIS MUT]”, the binding result (500 nM protein) was “binds more weakly”.

Consider “CTAAAGGGAGAAAAGGTCATAGCGGCCAGTCAAAACCAAGGGCGACAG (double strand) [2xNR5RE MUT]”, for which the binding result was “binds more weakly”.
